# Source: PubChem BioAssay AID1347423 (Functional Genomics Laboratory (NCATS/FGL), 2020)
# The campaign covered roughly 52,000 sequences. About 210 (0.4%) were called active.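 How the source made its calls: active means gene whose silencing raises cell survival under the drug, median off-target-corrected z-score across its silencing RNAs 2 or more; inactive means the rest.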 Some of the results follow.
# Assay: Resistance to Poly (ADP-Ribose) Polymerase inhibitor: Gene Identification via Genome-wide siRNA Screen
# Details: mouse BRCA2 R2336H ES cells, olaparib, CellTiter-Glo viability; stronger effect = higher value
# Method in brief: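 Genome-wide siRNA screen (3 siRNAs/gene, 20 nM) in mouse ES cells carrying hypomorphic BRCA2 R2336H; olaparib 500 nM added 48 h post-transfection, CellTiter-Glo viability 72 h later. Normalized to plate-median negative control; MAD z-scores, gene median, seed-adjusted.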
row,Sequence,z-score
1,GGCGAUGUGACCAUUACAATT against Cct4,inactive: -2.9
2,GCUGCUUUAGCUUAGUUUUTT against D17H6S56E-3,inactive: 0.943
3,GCAUCUAUAAUUCUAUACCTT against BC023105,inactive: 0.491
4,GGACCUACGACAUUUCCUCTT against Baiap1,inactive: 0.46
5,GCACAGGUUCAAGUGGAACTT against Prnd,inactive: 0.93
6,GGAACAAAGACGUAAAAAATT against Olfr1101,inactive: 0.272
7,GCCAUGAGGAGAUUCAAGGTT against Klra5,inactive: 0.359
8,GGUCGUGAUAAACAUAUCATT against 2410030J07Rik,inactive: -0.557
9,GGCUUUUUUGUCUUAGGCUTT against A530013C23Rik,inactive: 0.741
10,GGUAUUUAAGUGAUACAUCTT against Ddost,inactive: 0.616
11,GGAACUUUAUGUCUCCUACTT against 5730427C23Rik,inactive: 0.596
12,CCAAAUCUGUUGAUGAUUCTT against Setmar,inactive: 1.04
13,GGUUACAAUCCAUGAGAAATT against Anapc1,inactive: -1.13
14,GCACCAUUGACUCAGUUAATT against Semcap2,inactive: 0.129
15,GCUACCAACCAUUAAGAUATT against Lipl2,inactive: 1.06
16,GGUAUGGAUCUUUCUGAUATT against D2Ertd145e,inactive: -0.874
17,GCAAAUCCGAAUGAACCUUTT against Cabp5,inactive: 0.277
18,GGACAUACCCUUAACCAAATT against Plekhb1,inactive: -1.32
19,GGCAGAACGGAAUAAAAUGTT against Stag2,inactive: 1.3
20,GCUAAGAACGGAUUUCAAGTT against 2900075G08Rik,inactive: 0.517
21,CCAGCAAGUAAAACAAGCUTT against Olfr803,inactive: 0.799
22,GCGAGGACAUCGUAGAGAATT against Msi1h,inactive: 1.97
23,GCCAGUGCAUGAAAGAUAUTT against 1110028C15Rik,inactive: 1.58
24,CCCUGUGCGAGAAUAGCAUTT against Pigh,inactive: -0.682
25,CCGUCUAUUAAAUAUCUCGTT against 2010012F05Rik,inactive: 0.582
26,CCUGCUAAUGUUUGUAAGUTT against 4921515A04Rik,inactive: 0.647

row,Sequence,z-score
1,GCCACUCUAGCUCGUAUUGTT against Des,inactive: 0.163
2,GGAAAUUUCAGUCGAACAGTT against Cdgap,inactive: 0.403
3,GGCAAAGUUAUCAAGGAGATT against Slc17a6,inactive: 0.297
4,GCCGACAUAGCAUUAUUAATT against Spry2,inactive: 0.729
5,CCAAUGUUGGAAAGCCUUUTT against Zfp97,inactive: -2.06
6,GCAUGGACUGACAUCAAGCTT against Mtap6,inactive: -0.943
7,GGAAGCAAAAUAAAGAAACTT against Myo1e,inactive: -1.09
8,CAUCAUUGAGAUGUCACACTT against Ypel4,inactive: -0.929
9,GCUUCACUCACAUAAUAUCTT against Mrps31,inactive: -0.424
10,GGAGGAAAAGAAAGGUCCUTT against Klc3,inactive: -0.308
11,GGAAGUUCCACCAUACCUCTT against 1700009B20Rik,inactive: 0.309
12,CGACUUGCAUCAGUGGAUCTT against Cpxm2,inactive: -0.278
13,GGUUUUCUUUUCUUCUGCCTT against 0610011L14Rik,inactive: 0.0234
14,GCAUUCGUCAAAUAUUAUCTT against BC025462,inactive: -0.302
15,GGAUGUCUCGGAACUAAGGTT against 1500003D12Rik,inactive: 1.82
16,GGAGAAAAUCAAAGAAGCUTT against Gnpda2,inactive: 2.75
17,GUUGUCAAGAGAUACAUGUTT against 0610033E06Rik,inactive: 0.371
18,GCAGUGCGAUUGCUUACAGTT against Tube1,inactive: 0.343
19,CGUGGUCAUCUGGUAUGAGTT against E430039K05Rik,inactive: 1.54
20,GGCCUAAACCCUUUCAUCUTT against V1rb6,inactive: 0.673
21,CCUACAGUACCCAAAAUACTT against AW125688,inactive: 0.285
22,GGAACAUCAAGGGAAUUAUTT against Zfml,inactive: -1.53
23,GGACAAGUGUCAGAGCUGUTT against 3010026O09Rik,inactive: -0.339
24,CCUUGUUCAACAGUCAUGUTT against Ssfa1,inactive: -1.76
25,GGAAGAAAAAGAAAAGAGUTT against Dek,inactive: 0.543
26,GCUGCAUCUAAAGCCUUAATT against Olfr661,inactive: -0.852

row,Sequence,z-score
1,GGACAUCCAUUCAUGCUUUTT against Serpinb1b,inactive: 0.106
2,GCUGAGUCAAAAUGUAAAGTT against Cdc25c,inactive: 1.07
3,GGCACUGUAGACAAACUCUTT against Stxbp1,inactive: -1.1
4,GCUUCUACCCUUAAUGCCATT against C78212,inactive: 1.52
5,GGCCUGCCGGAGAUAAAGATT against 1700065I17Rik,inactive: -0.78
6,GCUGAAUCUGUUGUCCGUGTT against Mpo,inactive: -0.266
7,GGAGUUGAAUGGCUCUGGATT against Usp26,inactive: -2.16
8,GGCGUACAGGCAAAAAGCATT against 1700025B16Rik,inactive: -0.373
9,CCAUGUCUGUAUCCGCAUUTT against 1700001J03Rik,inactive: 0.705
10,GGCACAUGGAGUGGACAAGTT against Blvrb,inactive: -0.219
11,GGAGGAAAAACAGUGCAGATT against 4931400A14Rik,inactive: -0.841
12,GGUAGUGAGUACUUUGGAATT against Amy2,inactive: 1.25
13,GGUGUUUGAGAUCAGCUGCTT against Trib2,inactive: 0.455
14,GCUUCUAAAAGAGUUGACATT against Mgat4a,inactive: -0.62
15,CGAUUCUGUAUCCAGUUGGTT against Olfr488,inactive: -1.04
16,GGAGAAAGUUUUGGAAAAATT against Slc24a5,inactive: 0.846
17,GGAUGAAACUUUCAGUUGCTT against Cenph,inactive: -2.07
18,CCACUUAUGGGCCUACAAATT against Nipsnap1,inactive: -1.84
19,CGGCAAGUAUGAUCUGGACTT against Eno3,inactive: 0.835
20,GCUAGGUGGGCAACUGUAUTT against Edg7,inactive: 0.647
21,GUACACAAGCCCUGUUUACTT against Hoxa6,inactive: -0.381
22,GGCCGAGUCAAGAAUCUUUTT against 1810036I24Rik,inactive: 1.11
23,GCAUGUUUUCCACACCGGUTT against V1rb4,inactive: 0.47
24,GCCCAAAUAGAGGAGGCUUTT against Aqp1,inactive: -0.545
25,GCUGCUCGAUUGCUUUCCATT against 4930429B21Rik,inactive: -0.0996
26,CCCAUCCAUACAAAAAUGATT against Polm,inactive: -0.882

row,Sequence,z-score
1,GGUGGUACAGGUCUUCUCCTT against Ap1m1,inactive: -0.827
2,GCAUUUUUGAACAAACUUGTT against 4932422E22Rik,inactive: 1.37
3,GGCAUACUGGUUAAUCUCATT against Arl6,inactive: 0.117
4,GCAAUGGUCCCACUGUCAGTT against Nrip1,inactive: -1.19
5,GGUUCACACCAAAGAGCAGTT against Zfp535,inactive: 0.763
6,CGUAAUCCUGACUUUUUGATT against Adam9,inactive: -0.377
7,CGAGAAUUACAGACACUUGTT against AI326906,inactive: -0.928
8,CCCAACACAAGGUGUGAGGTT against Rabl5,inactive: 0.0466
9,GGCUCAUUUAAAACAAGCATT against Cdh11,inactive: 0.0431
10,GGAAAGUAUGGUGGCUUCGTT against Olfr859,inactive: -1.89
11,CCUAGAGUGAGAUAGCCCUTT against Igfbpl1,inactive: 1.54
12,GGGUACACAACUACCCAAGTT against Sox15,inactive: 0.115
13,GGAUCGUUUAUGAAUCUGATT against Slitrk6,inactive: -0.648
14,GCCACUGAUGUAAGGCUCATT against D4Bwg0951e,inactive: 0.953
15,GGAGAAAAUUGAAGAGUAUTT against Gtf2e2,inactive: -0.127
16,GCAGUGAUCAGGUAAUGAATT against Igf2,inactive: 1.62
17,GGAUCGAUCUGACAUCAAATT against Dspg3,inactive: 0.576
18,GGAAGUGUAUGUUAUUUCATT against B230325K18Rik,inactive: 0.028
19,GCAACCCAUAGUCUACCCUTT against Hoxc4,inactive: 0.559
20,GCUAUAAGGAAAGAGUAGCTT against Trar3,inactive: -0.147
21,GGUUUAGGCAACUAAGUUGTT against Stat5a,inactive: 1.15
22,GGAAGUCACCUUUUAUCCUTT against 1810008K03Rik,inactive: 0.225
23,CGAUGCUGACUGAGAUCAUTT against Rad23a,inactive: 1.9
24,GCACUAAUACUAACCAUGGTT against Rhox12,inactive: 0.413
25,GGAGCAGAUAAUGUACAUATT against 1700001M19Rik,inactive: 0.984
26,CCACUCAAGACCAAAUGGATT against Arx,inactive: 1.17

# A second format for part of the listing above.
row | Sequence | z-score
4 | GCAAUGGUCCCACUGUCAGTT against Nrip1 | inactive: -1.19
5 | GGUUCACACCAAAGAGCAGTT against Zfp535 | inactive: 0.763
6 | CGUAAUCCUGACUUUUUGATT against Adam9 | inactive: -0.377
7 | CGAGAAUUACAGACACUUGTT against AI326906 | inactive: -0.928
8 | CCCAACACAAGGUGUGAGGTT against Rabl5 | inactive: 0.0466
9 | GGCUCAUUUAAAACAAGCATT against Cdh11 | inactive: 0.0431
